The supplement of paper PMC3334620
In all, about 33,000 sequences were measured (“E-score (-0.5 to 0.5)”: median about -0.0059, highest 2% from about 0.26 on). The list shows a part of the results.

Each sequence was assayed against T1, Cin5 (UniProt P40917) (assay: PBM E-score (8-mer binding enrichment) (E-score (-0.5 to 0.5)); higher = stronger / more preferred TF binding). Details: protein concentration: 100 nM; construct: GST-full length.
T1 sequence: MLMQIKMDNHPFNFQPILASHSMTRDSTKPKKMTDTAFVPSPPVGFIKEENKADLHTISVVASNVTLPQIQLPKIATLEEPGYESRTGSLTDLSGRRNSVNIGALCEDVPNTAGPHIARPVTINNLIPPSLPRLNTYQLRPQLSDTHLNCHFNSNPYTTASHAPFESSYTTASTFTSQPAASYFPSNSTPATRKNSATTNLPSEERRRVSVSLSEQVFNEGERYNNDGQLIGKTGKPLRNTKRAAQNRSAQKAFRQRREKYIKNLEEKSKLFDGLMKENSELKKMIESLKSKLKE
Summary of the method: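 PURExpress in vitro transcription/translation supplied GST-tagged yeast transcription factors, either full-length or DNA-binding domain. Applied at about 100-200 nM to universal all-10-mer Agilent arrays double-stranded by primer extension, the bound protein was detected with fluorescent anti-GST. E-scores, modified Wilcoxon-Mann-Whitney statistics, were given by the Universal PBM Analysis Suite to ungapped eight-base words pooled with their reverse complements after masliner normalisation.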

Going from CTCCAGAC to GGGACAAA, the “PBM E-score” value rises from -0.141 to -0.0801.

Going from CAACCGCC to TAGGTTAA, the “PBM E-score” value rises from -0.126 to 0.137.

Compared with CTTATGTC, TATGTGAA is lower in “PBM E-score” value: 0.219 for the first, 0.0804 for the second.

Going from GCCTAACC to CAAAGTCC, the “PBM E-score” value falls from -0.12 to -0.155.

First: TAGAGTAA
Second: AGATCAAG
The “PBM E-score” value of the first is higher: 0.153 for the first, 0.0682 for the second.

First: AAGGTTCG
Second: GTTGGCAA
The “PBM E-score” value of the first is higher: -0.0683 for the first, -0.109 for the second.

Compared with CCGTGTCC, ACGTATCA is higher in “PBM E-score” value: -0.0224 for the first, 0.156 for the second.

First: CCAGGTAA
Second: AACTAATA
The “PBM E-score” value of the first is lower: 0.0331 for the first, 0.378 for the second.

First: CAGCGCCG
Second: CCCCTTCG
The “PBM E-score” value of the first is higher: -0.195 for the first, -0.26 for the second.

Going from GCACATAA to CCAGGTAC, the “PBM E-score” value falls from 0.0702 to -0.27.

Compared with AACCTGCC, CGGAGAAA is higher in “PBM E-score” value: -0.167 for the first, 0.0137 for the second.

Going from CAGCAGAC to CGAGTAGA, the “PBM E-score” value falls from -0.0879 to -0.139.

Compared with ACTTGATG, ACAAAATC is lower in “PBM E-score” value: 0.156 for the first, 0.111 for the second.

Compared with GGGAATCA, CAAAGCCG is lower in “PBM E-score” value: -0.0779 for the first, -0.158 for the second.

Going from TAAAGGCA to ACAAAAGT, the “PBM E-score” value falls from 0.0781 to 0.0602.

Compared with AAGGGACG, AACCACAT is higher in “PBM E-score” value: -0.196 for the first, 0.229 for the second.

Compared with GAAGTAGC, GATGGGGA is higher in “PBM E-score” value: -0.0396 for the first, 0.0634 for the second.

Going from GGCCTTTA to GTGGCCAA, the “PBM E-score” value rises from -0.18 to 0.0452.

Going from ACCTGCGT to GGGTTGAA, the “PBM E-score” value falls from -0.0767 to -0.0789.

First: ATCAGTCC
Second: CGCATACG
The “PBM E-score” value of the first is lower: -0.343 for the first, 0.0193 for the second.

First: CCTTAAGG
Second: CGCTAGGA
The “PBM E-score” value of the first is higher: -0.0006 for the first, -0.11 for the second.

Going from CGTAACTC to AGGTTCAT, the “PBM E-score” value rises from -0.0438 to 0.0138.

First: CATACCAC
Second: CCGCGTGC
The “PBM E-score” value of the first is higher: -0.00077 for the first, -0.0723 for the second.

Going from GATTAAAA to CACATGGC, the “PBM E-score” value falls from 0.185 to -0.136.

Compared with AGAAGACC, ACAAATGG is higher in “PBM E-score” value: -0.0854 for the first, 0.0952 for the second.

First: CTGTACTA
Second: CTACACGC
The “PBM E-score” value of the first is higher: 0.091 for the first, -0.136 for the second.

Compared with AAGTTACA, TAGTGTGA is lower in “PBM E-score” value: 0.187 for the first, 0.0144 for the second.

Going from AGTCGCGA to AGCTATCC, the “PBM E-score” value falls from 0.167 to -0.187.

Going from CCCGAGGC to CCAACTCG, the “PBM E-score” value rises from -0.239 to 0.0703.

Going from ACGGGTTA to ATGCCAAG, the “PBM E-score” value rises from -0.139 to -0.045.

First: CCTGCCGA
Second: GTACACTA
The “PBM E-score” value of the first is lower: -0.126 for the first, -0.0516 for the second.

Going from TCCATAGA to CTATGGCC, the “PBM E-score” value rises from -0.253 to -0.0903.

First: CCCGGGAC
Second: TCACAAAA
The “PBM E-score” value of the first is lower: 0.019 for the first, 0.192 for the second.

First: CTTGTGTC
Second: AGCACGGA
The “PBM E-score” value of the first is higher: 0.0151 for the first, -0.0197 for the second.

First: CCCTGGAA
Second: TGGATAAA
The “PBM E-score” value of the first is lower: -0.27 for the first, 0.0255 for the second.

First: ACGTATCC
Second: ACACACCC
The “PBM E-score” value of the first is lower: -0.077 for the first, -0.0386 for the second.

Going from CGTTGTCC to CACCGCGG, the “PBM E-score” value rises from 0.0987 to 0.167.

Going from ACCTCACA to ACCTCGAG, the “PBM E-score” value rises from -0.0167 to 0.204.

First: CATTATTA
Second: CCTTAAAC
The “PBM E-score” value of the first is higher: 0.223 for the first, -0.123 for the second.

First: CGGACCGA
Second: TGGGGACA
The “PBM E-score” value of the first is higher: 0.0397 for the first, -0.131 for the second.

Going from GAGTCTCA to AGACATTA, the “PBM E-score” value rises from -0.224 to 0.0338.

Compared with ATTGTGAA, CAAAGGCG is lower in “PBM E-score” value: 0.0824 for the first, -0.116 for the second.

First: GCAAGGTA
Second: CAGCCCCA
The “PBM E-score” value of the first is lower: 0.0452 for the first, 0.104 for the second.

Going from CCTATGAA to GGATACAA, the “PBM E-score” value rises from -0.0816 to 0.105.

Compared with ATAATCTG, AGGATCAA is lower in “PBM E-score” value: 0.153 for the first, 0.0833 for the second.

Compared with ACCCCACC, CAAGATCA is lower in “PBM E-score” value: 0.185 for the first, 0.0266 for the second.

First: AAATCCCT
Second: CGACTCAG
The “PBM E-score” value of the first is lower: -0.114 for the first, 0.00897 for the second.

First: ACTTACTA
Second: CTTTCTAA
The “PBM E-score” value of the first is higher: 0.108 for the first, 0.0224 for the second.

First: ATACCCCA
Second: AGCGGCTC
The “PBM E-score” value of the first is higher: 0.233 for the first, -0.0582 for the second.

Compared with AATCTGGA, GGCCATAA is higher in “PBM E-score” value: -0.00635 for the first, 0.0497 for the second.

Going from AATACATC to CCGGATAC, the “PBM E-score” value falls from 0.209 to -0.118.

Going from CGAGAGAG to CGAACGAG, the “PBM E-score” value falls from -0.08 to -0.11.

First: GGCGGCCC
Second: AACATTCA
The “PBM E-score” value of the first is lower: -0.358 for the first, 0.103 for the second.

First: GTCGTTGA
Second: CCATTAGG
The “PBM E-score” value of the first is higher: -0.0228 for the first, -0.239 for the second.

Compared with AATACGAC, CTGCTTAC is higher in “PBM E-score” value: -0.0777 for the first, 0.402 for the second.

First: AGCCCACG
Second: ACAACAGC
The “PBM E-score” value of the first is lower: -0.118 for the first, -0.0455 for the second.

First: CGCGTATC
Second: ATTCCGGG
The “PBM E-score” value of the first is lower: 0.06 for the first, 0.181 for the second.

Going from AGGTAATC to AGTTCTGA, the “PBM E-score” value falls from 0.313 to 0.0771.

Going from AAAGGGCA to CAACTTCA, the “PBM E-score” value rises from -0.174 to 0.05.

Going from TGGGAACA to ATAAGACA, the “PBM E-score” value rises from -0.0454 to 0.105.

First: AAGGGAGT
Second: CATGAAGA
The “PBM E-score” value of the first is lower: -0.285 for the first, -0.0234 for the second.

Compared with GTCCTATA, AGACGAAG is higher in “PBM E-score” value: -0.0901 for the first, -0.0255 for the second.

First: CGACGATA
Second: AAATGCAA
The “PBM E-score” value of the first is lower: -0.0915 for the first, 0.0178 for the second.

Compared with AACGTGGA, ACGCAAAG is higher in “PBM E-score” value: 0.0162 for the first, 0.0785 for the second.

First: AAAGTCCT
Second: ACGACTTG
The “PBM E-score” value of the first is lower: -0.206 for the first, -0.164 for the second.

First: GTGTCTAA
Second: CCCTCGGC
The “PBM E-score” value of the first is higher: -0.197 for the first, -0.217 for the second.

Going from GAGTCTCC to CAAATCTA, the “PBM E-score” value rises from -0.0628 to 0.14.

First: GCAAACAC
Second: CGCGAACC
The “PBM E-score” value of the first is higher: 0.00753 for the first, -0.129 for the second.

Going from CGACAAAG to AAGTTTTC, the “PBM E-score” value falls from 0.167 to 0.0824.

Going from ATTCCTGC to CTGTTCTC, the “PBM E-score” value falls from 0.116 to -0.109.

Going from GCACTACC to AAGCAGCG, the “PBM E-score” value rises from -0.00786 to 0.0586.

First: ACAGTCGA
Second: GAATGAAC
The “PBM E-score” value of the first is lower: -0.13 for the first, 0.103 for the second.

Going from AGGTAACA to GCAATCCC, the “PBM E-score” value falls from 0.217 to 0.0378.

First: AAAAGAAA
Second: GAACCCGA
The “PBM E-score” value of the first is higher: 0.0291 for the first, -0.0808 for the second.

Going from CAGAACGC to GCACGCGA, the “PBM E-score” value rises from -0.168 to 0.0461.

First: CTAAGTCC
Second: CTCACTCC
The “PBM E-score” value of the first is lower: -0.307 for the first, -0.198 for the second.

Going from GGGGTGAC to CTGAGTTC, the “PBM E-score” value rises from -0.0524 to 0.114.

First: TACCCAAA
Second: CCGCAAAC
The “PBM E-score” value of the first is higher: 0.00364 for the first, -0.0287 for the second.

Going from ACACTATG to GGGCAACC, the “PBM E-score” value falls from -0.0194 to -0.13.

First: ACTTGTAT
Second: AGCTCAAG
The “PBM E-score” value of the first is higher: 0.0532 for the first, -0.174 for the second.

Going from CTATAGGC to CTTGAAAG, the “PBM E-score” value falls from -0.0859 to -0.17.

First: CCACCGAG
Second: GCGCGAGC
The “PBM E-score” value of the first is lower: -0.0461 for the first, -0.0452 for the second.

Compared with CAACAATG, CGTTCCCA is lower in “PBM E-score” value: 0.066 for the first, -0.259 for the second.

First: CATATTTC
Second: CCGATTGC
The “PBM E-score” value of the first is lower: 0.0909 for the first, 0.167 for the second.

Compared with GTGGACAC, CCCCATAG is higher in “PBM E-score” value: -0.0447 for the first, -0.0251 for the second.

Compared with ATAGTCCA, AGCATCAG is lower in “PBM E-score” value: 0.0934 for the first, 0.0622 for the second.
